Out of some 320,000 compounds screened, about 2,100 (0.66%) were called active. The shares of active, inactive and inconclusive entries below differ from those in the screen. Calls come from the whole dose curve; as a rule, active = well fitted inhibition curve with a large enough effect in the signal ratio, with a control signal flat (not every such curve was filed as active); inconclusive = small, poorly fitted or top-dose-only effect, or effect the other way, or a change in a side signal; inactive = flat fitted curve, though single readings scatter; the % refers to the signal ratio. Potencies beside an inconclusive call are fits to weak or partial responses and may not hold up.
experiment: qHTS Assay for Lipid Storage Modulators in Drosophila S3 Cells; conditions: BODIPY lipid droplet fluorescence, 18-24 h, cells fed with added oleic acid; lipid storage change, negative = inhibition: at 46.1 µM (top of the series) unless noted
Summary of the method: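 Laser-scanning cytometry quantifies lipid droplet accumulation (500–530 nm total intensity; droplet/cell object ratio) in oleic acid-fed (400 uM added) Drosophila S3 cells treated with a concentration series. 20 uM Triacsin C defined 100% inhibition.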
% is set by controls: 0 for no effect and ±100 for the full control effect; potency is the fitted concentration of half-maximal effect.

Row | SMILES | lipid storage change, negative = inhibition | Potency | outcome
1 | O=C(CC(=O)c1ccccc1O)c1cccc(F)c1 | inconclusive: -2.15% |  | 
2 | O=C(O)c1ccc(S(=O)(=O)N2CCCCCC2)cc1 | inconclusive: 1.92% |  | 
3 | CN1CCN(Cc2cc(=O)oc3ccc(Cl)cc23)CC1 | inconclusive: -8.73% |  | 
4 | Cc1ccc(Nc2nc(N)nc(CN3CCN(C)CC3)n2)cc1C | inactive: 2.99% |  | 
5 | CS(=O)(=O)c1ccc(N2CCOCC2)c(S(C)(=O)=O)c1 | inactive: -24.1% |  | 
6 | Cc1ccc(NC(=O)CCNCc2ccco2)cc1S(=O)(=O)N(C)C | inconclusive: 5.34% |  | 
7 | COc1ccccc1-n1cnnc1SCC(=O)NC1CCCC1 |  | inconclusive: 29.1 µM [falling, partial curve, poor fit] | 
8 | CN(CC(=O)Nc1ccc(F)c(F)c1F)C1CCCCC1 | inconclusive: -2.99% |  | 
9 | Brc1cc2ccccc2[n+](Cc2ccccc2)c1 |  | inconclusive: 16.4 µM [falling, single point] | 
10 | Cc1ccc(NS(=O)(=O)c2cccc(C(=O)NNC(=O)c3cccn3C)c2)c(C)c1 | inconclusive: 41.8% |  | 
11 | O=C(Nc1ccccc1)N1CCN2C(=O)c3ccccc3C12c1ccccc1 (configuration not stated) | inconclusive: -6.83% |  | 
12 | CCOc1ccc(CN(C)C(=O)[C@H](C)NC(=O)c2ccco2)cc1OC | inconclusive: 37% |  | 
13 | O=C(Nc1ccc(F)cc1)c1nn(-c2ccccc2)c(=O)cc1Cl | inconclusive: -51.8% |  | 
14 | Cc1ccc(S(=O)(=O)N(CC(=O)NC2CC2)c2ccc(C)c(Cl)c2)cc1 | inactive: -26.3% |  | 
15 | O=C1N(c2ccc(Cl)c(Cl)c2)CN(Cc2ccccc2)CN1n1cnnc1 | inconclusive: -3.66% |  | 
16 | Cc1ccc(S(=O)(=O)NCCC(c2ccccc2)c2ccccc2)cc1C(=O)O |  | inconclusive: 7.31 µM [falling, partial curve, poor fit] | 
17 | S=C(Nc1ccc(OCc2ccccc2)cc1)Nc1cccc(Cl)c1Cl |  | inconclusive: 29.1 µM [cytotoxic, single point] | 
18 | O=Cc1ccnc(-c2ccc(OC(=O)c3ccco3)cc2)n1 |  | inconclusive: 3.26 µM [falling, single point] | 
19 | CCc1cccc(C)c1NC(=O)c1cccnc1 | inconclusive: 48.3% |  | 
20 | C=CCNc1nc(C(F)(F)F)nc2c1nnn2Cc1ccccc1Cl | inconclusive: 6.98% |  | 
21 | COc1ccc(CN(C)CC(=O)Nc2cccc(S(=O)(=O)N(C)c3ccccc3)c2)c(OC)c1 |  | inconclusive: 11.6 µM [falling, partial curve, poor fit] | 

Row | SMILES | lipid storage change, negative = inhibition | Potency | outcome
22 | CCOC(=O)N[C@H](Cc1c[nH]c2ccccc12)C(=O)NC1CC1 | inconclusive: 3.64% |  | 
23 | CCOc1ccccc1NC(=O)CSc1cn[nH]n1 | inconclusive: 36.2% |  | 
24 | O=C(Nc1ccc(S(=O)(=O)Nc2ccc(Cl)cc2)cc1)C1CCCO1 (configuration not stated) |  | inconclusive: 6.51 µM [activator, single point] | 
25 | CC1CC(C)CN(CCCNC(=O)C2CCCN(c3nnc(N4CCCC4=O)s3)C2)C1 (configuration not stated) | inactive: -2.92% |  | 
26 | O=C(C1CCCN(S(=O)(=O)c2cccc3cccnc23)C1)N1CCc2ccccc21 (configuration not stated) | inconclusive: -0.395% |  | 
27 | COc1ccc(NC(=O)C2=CC(c3ccc(OC)c(OC)c3)=NS(=O)(=O)N2C)cc1 |  | inconclusive: 29.1 µM [falling, single point] | 
28 | N#C/C(=C(/O)c1ccc([N+](=O)[O-])o1)c1nc2ccccc2[nH]1 | inactive: -16.9% |  | 
29 | CC1CCN(CC(=O)Nc2nc(-c3ccccc3)cs2)CC1 | inactive: -4.89% |  | 
30 | COc1ccc(N=Nc2ccc3ccccc3c2)c(O)c1 |  | active: 4.11 µM | 
31 | CC1CCN(C(=O)CSc2ccc(-c3ccc(F)cc3)nn2)CC1 | inconclusive: -7.35% |  | 
32 | COc1ccc(-n2c(C)cc(C(=O)CN3CCCCC3)c2C)cc1 | inconclusive: 103% |  | 
33 | COc1cc(OC)cc(-c2c(-c3cccs3)c3cc(-c4ccc5c(c4)OCCO5)ccc3n2C)c1 | inconclusive: 15.5% |  | 
34 | CCc1ccc(CNc2ccc3c(c2)ncn3C)cc1 | inconclusive: 22.7% |  | 
35 | N#Cc1ccccc1NC(=O)COC(=O)CCc1ccc(S(=O)(=O)N2CCCCC2)cc1 | inconclusive: -14.5% |  | 
36 | Nc1ncccc1OCc1cccc(C(F)(F)F)c1 | inconclusive: -11% |  | 
37 | Cc1ccc(C(=O)NNC(=O)c2ccccc2-n2cccc2)cc1 | inconclusive: -34% |  | 
38 | O=C(C1=C[C@@H](c2ccc3c(c2)OCO3)C[C@@H](OCCCCO)O1)N1CCOCC1 | inconclusive: 1.53% |  | 
39 | NC(=O)Nc1n[nH]c(-c2ccccc2)n1 | inconclusive: -1.62% |  | 
40 | CCN=C1S/C(=C\c2ccc(-c3cccc(C(=O)O)c3)o2)C(=O)N1CC | inconclusive: -22.5% |  | 
41 | COc1ccc([N+](=O)[O-])cc1NCC(=O)Nc1cc(S(=O)(=O)N2CCCCC2)ccc1C |  | active: 16.4 µM | 
42 | CCCNC(=O)COC(=O)c1cccnc1Nc1ccccc1F | inconclusive: -42.8% |  | 

Row | SMILES | lipid storage change, negative = inhibition | Potency | outcome
43 | COc1ccc(/C=N/n2cncn2)cc1Cn1nc(C)c([N+](=O)[O-])c1C | inconclusive: 23.4% |  | 
44 | CCN(CC)S(=O)(=O)c1cccc(C(=O)N2CC(O)CC2C(=O)OC)c1 (configuration not stated) | inconclusive: 10.6% |  | 
45 | CC1=C(C(=O)NCc2ccccc2)C(c2ccc(C)o2)n2ncnc2N1 (configuration not stated) | inconclusive: -3.62% |  | 
46 | Cn1c(=NC(=O)c2ccco2)sc2cccc(F)c21 | inconclusive: 7.47% |  | 
47 | CCOC(=O)c1c(C)c(C(=O)N2CCN(c3cccc(Cl)c3)CC2)c(C)n1C | inconclusive: -50.6% |  | 
48 | CCOc1ccc(C(=O)NCC(=O)OCC(=O)NC2CCCC2)cc1 | inconclusive: -6.2% |  | 
49 | CC(C)(C)c1ccc(C(=O)Nc2cccnc2)cc1 | inconclusive: 41.2% |  | 
50 | CCCCNC(=O)CC(=O)Nc1ccccc1C(=O)O |  | inconclusive: 3.66 µM [activator, partial curve] | 
51 | CC(=O)Nc1cccc(C(=O)OCN2C(=O)c3ccccc3C2=O)c1 |  | inconclusive: 0.58 µM [activator, single point] | 
52 | CC(NC(=O)c1cc(-c2ccc(Br)cc2)on1)c1ccccc1 (configuration not stated) |  | inconclusive: 0.461 µM [rising, partial curve, poor fit] | 
53 | COc1ccc(Cl)cc1N(CC(=O)N1CCC(C)CC1)S(C)(=O)=O | inconclusive: -4.84% |  | 
54 | CC(O)c1nc(C(C)O)n(CC(=O)c2ccccc2)n1 (configuration not stated) | inconclusive: -14.5% |  | 
55 | C=CCOC(=O)C1=C[C@H](c2coc3ccccc3c2=O)[C@@H](CCCO)[C@H](OCC)O1 | inconclusive: 8.19% |  | 
56 | CCN(C(=O)COC(=O)c1cccnc1SC)C1CCCCC1 |  | inconclusive: 29.1 µM [activator, single point] | 
57 | Nc1nonc1C(=O)N/N=C/c1cc2c(cc1Br)OCO2 | inconclusive: 100% |  | 
58 | COc1ccc(CNC(=O)COC(=O)c2cc3ccccc3o2)cc1 |  |  | inactive [at 46.1 µM]
59 | CCCN1C2CCCC1CC(NC(=S)Nc1cccc(C)c1C)C2 (configuration not stated) | inconclusive: -12.7% |  | 
60 | Cn1c(=O)[nH]c(=O)c2c1nc(N1CCN(Cc3ccccc3)CC1)n2CCCc1ccccc1 | inconclusive: -3.91% |  | 
61 | CN(CCc1ccccc1)C1CCCN(C(=O)Cn2cccn2)C1 (configuration not stated) |  | inconclusive: 0.58 µM [falling, single point] | 
62 | NC(=S)NNC(=O)/C(=C/c1ccc(Br)cc1)NC(=O)c1ccccc1 | inconclusive: 49.1% |  | 
63 | O=C(c1ccc(Cl)c([N+](=O)[O-])c1)N1CCN(S(=O)(=O)c2ccc(Cl)cc2)CC1 | inconclusive: -32.6% |  | 

As entered above.
Cn1c(=NC(=O)c2ccco2)sc2cccc(F)c21 – lipid storage change, negative = inhibition: inconclusive: 7.47%
Cc1ccc(Nc2nc(N)nc(CN3CCN(C)CC3)n2)cc1C – lipid storage change, negative = inhibition: inactive: 2.99%

The listing continues:

Row | SMILES | lipid storage change, negative = inhibition | Potency | outcome
64 | COc1ccc(N2C(=O)CC(Sc3nc(C)cc(C)n3)C2=O)cc1OC (configuration not stated) |  |  | inactive [at 46.1 µM]
65 | O=C(NC(=S)Nc1ccc(S(=O)(=O)N2CCCCC2)cc1)c1ccc(Cl)cc1 |  | inconclusive: 0.58 µM [activator, single point] | 
66 | COc1ccc(C(=O)NC(=S)Nc2ccccc2F)cc1 | inconclusive: -8.91% |  | 
67 | Cc1ccc(C(=O)CN2C(=O)C(=O)N(Cc3ccccc3)C2=O)cc1 | inconclusive: -18.3% |  | 
68 | O=C(CSc1n[nH]c(-c2ccncc2)n1)Nc1ccc(Cl)c(Cl)c1 |  | inconclusive: 0.146 µM [activator, partial curve, poor fit] | 
69 | COC(=O)CCCNC(=O)c1ccc2oc(CCCc3ccccc3)nc2c1 |  | inconclusive: 29.1 µM [falling, single point] | 
70 | O=C(CCN1C(=O)c2ccc([N+](=O)[O-])cc2C1=O)Nc1ccccc1C(=O)O |  | inconclusive: 4.11 µM [activator, full curve, poor fit] | 
71 | CC(=O)c1sc(Nc2ccc(C)cc2)nc1C | inactive: 3.82% |  | 
72 | Cc1ccc(CSC2=NCCN2S(=O)(=O)c2ccc(F)cc2)cc1 |  | inconclusive: 25.9 µM [falling, single point] | 
73 | Fc1ccc(OCc2nn[nH]n2)c(F)c1 | inconclusive: 10.1% |  | 
74 | O=C(COC(=O)/C=C/c1ccc(Cl)cc1)Nc1ccc2c(c1)OCCO2 | inconclusive: 30.5% |  | 
75 | CCCC(=O)Nc1nc(-c2ccccc2)ns1 | inconclusive: 1.46% |  | 
76 | CC(=O)Oc1cccc(N2C(=O)C3C(C2=O)C2C=CC3C23CC3)c1 (configuration not stated) |  | inconclusive: 6.51 µM [activator, single point] | 
77 | Cc1ccc(S(=O)(=O)N2CCc3ccccc3C2CC(=O)O)cc1 (configuration not stated) | inconclusive: -3.14% |  | 
78 | O=C(O)Cc1sc(Nc2cccc3ccccc23)nc1-c1ccc(F)cc1 | inactive: -9.11% |  | 
79 | COc1cc(NC(=O)COC(=O)CO/N=C(\C)c2ccc3c(c2)OCO3)cc(OC)c1 | inconclusive: 2.7% |  | 
80 | O=C(Nc1ccc(Cl)c(Cl)c1)Nc1ccon1 |  | active: 10 µM | 
81 | O=C(Cc1ccccc1F)NCC1(N2CCOCC2)CCCCC1 | inconclusive: -5.36% |  | 
82 | Cc1ccc(N2C(=O)NC(C(F)(F)F)(C(F)(F)F)C3=C2CC(C)(C)CC3=O)cc1 |  | inconclusive: 1.64 µM [falling, partial curve] | 

19 structures from above, arranged by count of non-hydrogen atoms, rising:
Row | SMILES | lipid storage change, negative = inhibition | Potency | outcome
73 | Fc1ccc(OCc2nn[nH]n2)c(F)c1 | inconclusive: 10.1% |  | 
80 | O=C(Nc1ccc(Cl)c(Cl)c1)Nc1ccon1 |  | active: 10 µM | 
19 | CCc1cccc(C)c1NC(=O)c1cccnc1 | inconclusive: 48.3% |  | 
23 | CCOc1ccccc1NC(=O)CSc1cn[nH]n1 | inconclusive: 36.2% |  | 
5 | CS(=O)(=O)c1ccc(N2CCOCC2)c(S(C)(=O)=O)c1 | inactive: -24.1% |  | 
66 | COc1ccc(C(=O)NC(=S)Nc2ccccc2F)cc1 | inconclusive: -8.91% |  | 
29 | CC1CCN(CC(=O)Nc2nc(-c3ccccc3)cs2)CC1 | inactive: -4.89% |  | 
52 | CC(NC(=O)c1cc(-c2ccc(Br)cc2)on1)c1ccccc1 (configuration not stated) |  | inconclusive: 0.461 µM [rising, partial curve, poor fit] | 
32 | COc1ccc(-n2c(C)cc(C(=O)CN3CCCCC3)c2C)cc1 | inconclusive: 103% |  | 
48 | CCOc1ccc(C(=O)NCC(=O)OCC(=O)NC2CCCC2)cc1 | inconclusive: -6.2% |  | 
40 | CCN=C1S/C(=C\c2ccc(-c3cccc(C(=O)O)c3)o2)C(=O)N1CC | inconclusive: -22.5% |  | 
15 | O=C1N(c2ccc(Cl)c(Cl)c2)CN(Cc2ccccc2)CN1n1cnnc1 | inconclusive: -3.66% |  | 
65 | O=C(NC(=S)Nc1ccc(S(=O)(=O)N2CCCCC2)cc1)c1ccc(Cl)cc1 |  | inconclusive: 0.58 µM [activator, single point] | 
38 | O=C(C1=C[C@@H](c2ccc3c(c2)OCO3)C[C@@H](OCCCCO)O1)N1CCOCC1 | inconclusive: 1.53% |  | 
27 | COc1ccc(NC(=O)C2=CC(c3ccc(OC)c(OC)c3)=NS(=O)(=O)N2C)cc1 |  | inconclusive: 29.1 µM [falling, single point] | 
79 | COc1cc(NC(=O)COC(=O)CO/N=C(\C)c2ccc3c(c2)OCO3)cc(OC)c1 | inconclusive: 2.7% |  | 
41 | COc1ccc([N+](=O)[O-])cc1NCC(=O)Nc1cc(S(=O)(=O)N2CCCCC2)ccc1C |  | active: 16.4 µM | 
21 | COc1ccc(CN(C)CC(=O)Nc2cccc(S(=O)(=O)N(C)c3ccccc3)c2)c(OC)c1 |  | inconclusive: 11.6 µM [falling, partial curve, poor fit] | 
33 | COc1cc(OC)cc(-c2c(-c3cccs3)c3cc(-c4ccc5c(c4)OCCO5)ccc3n2C)c1 | inconclusive: 15.5% |  | 
